Experimental data reported in PMC12900701.
Results are given in words; binding and its absence hold for the method and conditions named. Binding seen in cells or lysates may run through a third protein. A yes stands for co-enrichment or nearness to the bait. Other partners may have been found.

The chains behind the UniProt entries cited, without tags or fusion partners.
UniProt P62068: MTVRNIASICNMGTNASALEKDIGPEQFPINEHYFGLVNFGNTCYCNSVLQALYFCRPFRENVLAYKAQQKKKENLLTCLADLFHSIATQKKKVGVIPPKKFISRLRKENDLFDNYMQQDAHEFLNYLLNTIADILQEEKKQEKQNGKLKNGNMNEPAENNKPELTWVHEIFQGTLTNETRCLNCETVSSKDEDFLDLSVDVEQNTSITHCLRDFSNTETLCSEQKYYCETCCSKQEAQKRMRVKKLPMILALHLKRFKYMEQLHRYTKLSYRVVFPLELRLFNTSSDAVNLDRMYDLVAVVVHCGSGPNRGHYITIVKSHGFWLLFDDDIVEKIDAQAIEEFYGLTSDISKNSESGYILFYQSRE
UniProt Q8TAF3: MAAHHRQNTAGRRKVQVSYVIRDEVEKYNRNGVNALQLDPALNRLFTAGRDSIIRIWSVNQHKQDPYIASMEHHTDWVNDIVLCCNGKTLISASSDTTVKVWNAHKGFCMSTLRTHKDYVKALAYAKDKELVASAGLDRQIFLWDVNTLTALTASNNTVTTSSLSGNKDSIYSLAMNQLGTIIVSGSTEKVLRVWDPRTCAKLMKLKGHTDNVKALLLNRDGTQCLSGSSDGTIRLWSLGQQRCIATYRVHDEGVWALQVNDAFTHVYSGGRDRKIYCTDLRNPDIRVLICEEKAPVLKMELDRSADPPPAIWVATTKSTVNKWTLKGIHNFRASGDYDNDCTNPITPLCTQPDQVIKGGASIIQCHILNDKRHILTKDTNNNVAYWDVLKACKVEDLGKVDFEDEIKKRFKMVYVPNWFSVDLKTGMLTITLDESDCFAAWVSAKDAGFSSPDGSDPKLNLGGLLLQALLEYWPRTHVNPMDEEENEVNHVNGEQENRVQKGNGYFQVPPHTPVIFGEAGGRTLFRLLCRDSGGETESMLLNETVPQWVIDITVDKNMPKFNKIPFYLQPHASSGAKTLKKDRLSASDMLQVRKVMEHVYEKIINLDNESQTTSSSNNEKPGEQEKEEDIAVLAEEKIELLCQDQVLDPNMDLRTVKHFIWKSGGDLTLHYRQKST

target: USP46 (USP46 FLAG group) (human) (UniProt P62068); assay: affinity purification with mass spectrometry; IP of USP46 from cell lysate with anti-USP46 antibody and Protein A/G magnetic beads, 4°C, 6 h; IP buffer 50 mM Tris-HCl, 150 mM NaCl, 5 mM EDTA, 1% NP-40, pH 7.4; USP46 FLAG group against vector control group; shotgun mass spectrometry of half of each sample

| binding | Molecule |
| --- | --- |
| binds | UAF1 (from UniProt Q8TAF3 1-677) |
| binds | POU4F1 (protein, UniProt Q01851 1-419) MMSMNSKQPHFAMHPTLPEHKYPSLHSSSEAIRRACLPTPPLQSNLFASLDETLLARAEALAAVDIAVSQGKSHPFKPDATYHTMNSVPCTSTSTVPLAHHHHHHHHHQALEPGDLLDHISSPSLALMAGAGGAGAAAGGGGAHDGPGGGGGPGGGGGPGGGPGGGGGGGPGGGGGGPGGGLLGGSAHPHPHMHSLGHLSHPAAAAAMNMPSGLPHPGLVAAAAHHGAAAAAAAAAAGQVAAASAAAAVVGAAGLASICDSDTDPRELEAFAERFKQRRIKLGVTQADVGSALANLKIPGVGSLSQSTICRFESLTLSHNNMIALKPILQAWLEEAEGAQREKMNKPELFNGGEKKRKRTSIAAPEKRSLEAYFAVQPRPSSEKIAAIAEKLDLKKNVVRVWFCNQRQKQKRMKFSATY |
| binds | WDR20 (protein, UniProt Q8TBZ3 1-569) MATEGGGKEMNEIKTQFTTREGLYKLLPHSEYSRPNRVPFNSQGSNPVRVSFVNLNDQSGNGDRLCFNVGRELYFYIYKGVRKAADLSKPIDKRIYKGTQPTCHDFNHLTATAESVSLLVGFSAGQVQLIDPIKKETSKLFNEERLIDKSRVTCVKWVPGSESLFLVAHSSGNMYLYNVEHTCGTTAPHYQLLKQGESFAVHTCKSKSTRNPLLKWTVGEGALNEFAFSPDGKFLACVSQDGFLRVFNFDSVELHGTMKSYFGGLLCVCWSPDGKYIVTGGEDDLVTVWSFVDCRVIARGHGHKSWVSVVAFDPYTTSVEEGDPMEFSGSDEDFQDLLHFGRDRANSTQSRLSKRNSTDSRPVSVTYRFGSVGQDTQLCLWDLTEDILFPHQPLSRARTHTNVMNATSPPAGSNGNSVTTPGNSVPPPLPRSNSLPHSAVSNAGSKSSVMDGAIASGVSKFATLSLHDRKERHHEKDHKRNHSMGHISSKSSDKLNLVTKTKTDPAKTLGTPLCPRMEDVPLLEPLICKKIAHERLTVLIFLEDCIVTACQEGFICTWGRPGKVVSFNP |
